In PubChem BioAssay AID192 (DTP/NCI, 2004):
The list does not hold the whole screen: it is rich in T/C values a quarter to a half above the control, in often repeated tests (any T/C) and in doses without a T/C. Further doses and runs are listed elsewhere. T/C is the treated group as % of the vehicle group. Some entries give survivors of the animals treated and no T/C: the source holds a T/C of zero for them, seemingly a mark for toxic or unscored doses. Some survivor counts are full or nearly so, which does not show that the dose was tolerated: survival well below the control is almost never listed, so the zero probably covers shortened survival too. Survivors were counted at the toxicity check, usually on the fifth day, unless a day is given; later deaths do not show. Schedules are NCI's codes, taken here to give the interval after Q, in days (D) or hours (H), and the number of doses after X. Some doses were run more than once; their values stand side by side, smallest first. Marks such as (2×) count equal records among those shown. For survival time, this PubChem deposit counts one and a half times the control or more as active, and values a quarter to a half above the control carry no call in these data; other NCI protocols may use other cut-offs. Some T/C values carry the count of animals alive at the toxicity check (mostly the fifth day); where none is given, no animal had died by that day.

Test system: BDF1 mice, B16 melanoma ip, median survival T/C
Experiment: NCI In Vivo Anticancer Drug Screen. Data for tumor model B16 Melanoma (intraperitoneal) in B6D2F1 (BDF1) mice
Conditions: T/C endpoint: median survival time, higher T/C = longer survival
In short: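 Compounds were tested in mice carrying transplantable tumors. Survival or tumor size was recorded, and each value is the treated-group measurement (T) divided by that of the vehicle-treated control group (C).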

[1] = dose: 400.0 mg/kg/injection, schedule: Q01DX009 (ip), vehicle: saline
[2] = dose: 200.0 mg/kg/injection, schedule: Q01DX009 (ip), vehicle: saline
[3] = dose: 100.0 mg/kg/injection, schedule: Q01DX009 (ip), vehicle: saline
[4] = dose: 20.0 mg/kg/injection, schedule: Q01DX009 (ip), vehicle: Klucel (hydroxypropylcellulose) (HPC)
[5] = dose: 40.0 mg/kg/injection, schedule: Q01DX009 (ip), vehicle: Klucel (hydroxypropylcellulose) (HPC)
[6] = dose: 80.0 mg/kg/injection, schedule: Q01DX009 (ip), vehicle: saline

In the case of `COc1ccccc1N1C(=O)C=CC1=O`, the survivor count (dose: 2.5 mg/kg/injection, schedule: Q01DX009 (ip), vehicle: saline with Tween-80) is reported as 10 of 10, the survivor count (dose: 5.0 mg/kg/injection, schedule: Q01DX009 (ip), vehicle: saline with Tween-80) is reported as 10 of 10 and the survivor count (dose: 10.0 mg/kg/injection, schedule: Q01DX009 (ip), vehicle: saline with Tween-80) is reported as 10 of 10.

In the case of `COc1cc2ccc(C(C)N)cc2cc1OC` (stereo not given), the survivor count [1] is reported as 0 of 10.

In the case of `O=[N+]([O-])O.[Ga]`, the survivor count [2] is reported as 2 of 6 and the survivor count [1] is reported as 0 of 6.

For `NC1(c2ccccc2)CCCCC1`, the survivor count [3] was 0 of 10, the survivor count [2] was 0 of 10 and the survivor count [1] was 0 of 10.

In the case of `O=c1[nH]cc(F)c(=O)[nH]1`, the T/C (dose: 1.0 mg/kg/injection, schedule: Q01DX009 (ip), vehicle: saline) is reported as 126 % of control, the T/C (dose: 1.25 mg/kg/injection, schedule: Q01DX009 (ip), vehicle: saline) is reported as 103 (2×), 106, 108 % of control and the T/C (dose: 2.5 mg/kg/injection, schedule: Q01DX009 (ip), vehicle: saline, evaluated on day 5) is reported as 105, 109 (2×), 111 % of control. The T/C (dose: 2.5 mg/kg/injection, schedule: Q01DX009 (ip), vehicle: saline, evaluated on day 45) was 96 % of control, the T/C (dose: 2.5 mg/kg/injection, schedule: Q01DX009 (ip), vehicle: saline, evaluated on day 60) was 95, 114, 142 % of control and the T/C (dose: 5.0 mg/kg/injection, schedule: Q01DX009 (ip), vehicle: saline, evaluated on day 5) was 109, 110, 111, 113, 120 % of control. The T/C (dose: 5.0 mg/kg/injection, schedule: Q01DX009 (ip), vehicle: saline, evaluated on day 10) was 107 % of control [8 of 9 alive], the T/C (dose: 5.0 mg/kg/injection, schedule: Q01DX009 (ip), vehicle: saline, evaluated on day 35) was 137 % of control and the T/C (dose: 5.0 mg/kg/injection, schedule: Q01DX009 (ip), vehicle: saline, evaluated on day 45) was 105 % of control. The T/C (dose: 5.0 mg/kg/injection, schedule: Q01DX009 (ip), vehicle: saline, evaluated on day 60) was 102, 108, 115, 117, 121 % of control, the T/C (dose: 5.0 mg/kg/injection, schedule: Q01DX017 (ip), vehicle: saline) was 128 % of control and the T/C (dose: 5.0 mg/kg/injection, schedule: Q03HX024 (ip), vehicle: saline) was 125 % of control. For the same molecule, the T/C (dose: 10.0 mg/kg/injection, schedule: Q01DX009 (ip), vehicle: Klucel (hydroxypropylcellulose) (HPC)) was 97, 102, 103, 105 [5 of 6 alive], 118 (2×), 125, 127, 130, 133 % of control, the T/C (dose: 10.0 mg/kg/injection, schedule: Q01DX009 (ip), vehicle: saline, evaluated on day 5) was 118, 120 (2×), 122, 125 % of control and the T/C (dose: 10.0 mg/kg/injection, schedule: Q01DX009 (ip), vehicle: saline, evaluated on day 10) was 109 % of control [8 of 9 alive]. The T/C (dose: 10.0 mg/kg/injection, schedule: Q01DX009 (ip), vehicle: saline, evaluated on day 35) was 137 % of control, the T/C (dose: 10.0 mg/kg/injection, schedule: Q01DX009 (ip), vehicle: saline, evaluated on day 45) was 115 % of control and the T/C (dose: 10.0 mg/kg/injection, schedule: Q01DX009 (ip), vehicle: saline, evaluated on day 60) was 88, 100, 102 (2×), 104, 105, 107, 109, 110, 112, 115 [5 of 6 alive], 117, 119, 120, 121, 122 [5 of 6 alive], 125, 128, 130, 131 % of control. The T/C (dose: 10.0 mg/kg/injection, schedule: Q01DX017 (ip), vehicle: saline, evaluated on day 35) was 142 % of control, the T/C (dose: 10.0 mg/kg/injection, schedule: Q01DX017 (ip), vehicle: saline, evaluated on day 60) was 128 % of control and the T/C (dose: 10.0 mg/kg/injection, schedule: Q03HX024 (ip), vehicle: saline) was 130 % of control. The T/C [4] was 94, 107, 108, 113, 127, 136, 144, 146 % of control (2×), the survivor count [4] was 6 of 6 and the T/C (dose: 20.0 mg/kg/injection, schedule: Q01DX009 (ip), vehicle: saline with Tween-80) was 125 % of control. For the same molecule, the T/C (dose: 20.0 mg/kg/injection, schedule: Q01DX009 (ip), vehicle: saline, evaluated on day 5) was 121 [8 of 9 alive], 124, 130, 131, 138 % of control, the T/C (dose: 20.0 mg/kg/injection, schedule: Q01DX009 (ip), vehicle: saline, evaluated on day 10) was 122 [8 of 9 alive] and 133 % of control and the T/C (dose: 20.0 mg/kg/injection, schedule: Q01DX009 (ip), vehicle: saline, evaluated on day 35) was 142 % of control. The T/C (dose: 20.0 mg/kg/injection, schedule: Q01DX009 (ip), vehicle: saline, evaluated on day 45) was 131 % of control, the T/C (dose: 20.0 mg/kg/injection, schedule: Q01DX009 (ip), vehicle: saline, evaluated on day 60) was 97, 105, 107 (2×), 112, 116 (2×), 117, 121 (2×), 128, 130, 132, 135, 135 [4 of 6 alive], 137, 142, 148, 150 % of control and the survivor count (dose: 20.0 mg/kg/injection, schedule: Q03HX024 (ip), vehicle: saline) was 10 of 10. The T/C (dose: 20.0 mg/kg/injection, schedule: Q05DX010 (ip), vehicle: saline) was 137 % of control, the T/C (dose: 30.0 mg/kg/injection, schedule: Q01DX009 (ip), vehicle: saline) was 126 % of control and the T/C (dose: 33.3 mg/kg/injection, schedule: Q01DX009 (ip), vehicle: saline) was 137 % of control. The T/C [5] was 93, 110, 111, 128 % of control [4 of 6 alive], the survivor count [5] was 6 of 6 and the T/C (dose: 40.0 mg/kg/injection, schedule: Q01DX009 (ip), vehicle: saline with Tween-80) was 128 % of control. For the same molecule, the T/C (dose: 40.0 mg/kg/injection, schedule: Q01DX009 (ip), vehicle: saline, evaluated on day 5) was 52 (2×), 55, 56, 63 % of control, the T/C (dose: 40.0 mg/kg/injection, schedule: Q01DX009 (ip), vehicle: saline, evaluated on day 10) was 85 % of control and the T/C (dose: 40.0 mg/kg/injection, schedule: Q01DX009 (ip), vehicle: saline, evaluated on day 60) was 90 (2×), 100, 102, 105 (2×), 132 % of control. For the same molecule, the survivor count (dose: 40.0 mg/kg/injection, schedule: Q01DX009 (ip), vehicle: saline) was 5 of 6, 10 of 10 (3×), 6 of 6, the survivor count (dose: 40.0 mg/kg/injection, schedule: Q01DX017 (ip), vehicle: saline) was 10 of 10 and the T/C (dose: 40.0 mg/kg/injection, schedule: Q05DX010 (ip), vehicle: saline) was 145 % of control. The survivor count (dose: 50.0 mg/kg/injection, schedule: Q01DX009 (ip), vehicle: saline) was 10 of 10, the survivor count (dose: 60.0 mg/kg/injection, schedule: Q01DX009 (ip), vehicle: saline) was 10 of 10 and the T/C (dose: 60.0 mg/kg/injection, schedule: Q04DX003 (ip), vehicle: saline) was 130 % of control. The T/C [6] was 36, 41, 46, 47 % of control, the survivor count [6] was 6 of 6 and the survivor count [3] was 10 of 10. For the same molecule, the survivor count (dose: 100.0 mg/kg/injection, schedule: Q04DX003 (ip), vehicle: saline) was 10 of 10, the survivor count (dose: 100.0 mg/kg/injection, schedule: Q04DX005 (ip), vehicle: saline) was 10 of 10 and the T/C (dose: 160.0 mg/kg/injection, schedule: Q01DX009 (ip), vehicle: saline) was 31, 33, 36, 39 % of control. For the same molecule, the survivor count [2] was 10 of 10, the survivor count (dose: 200.0 mg/kg/injection, schedule: Q04DX003 (ip), vehicle: saline) was 10 of 10 and the survivor count (dose: 400.0 mg/kg/injection, schedule: Q01DX001 (ip), vehicle: saline) was 10 of 10. The survivor count [1] was 10 of 10.

In the case of `CC(=O)c1c(O)c(C)c(O)c2c1OC1=CC(=O)C(C(C)=O)C(=O)C12C` (stereo not given), the survivor count (dose: 10.0 mg/kg/injection, schedule: Q01DX009 (ip), vehicle: gum acacia) is reported as 10 of 10.

In the case of `CCc1c(CC(=O)O)c2cc(C)ccc2n1Cc1ccc(Cl)cc1`, the survivor count (dose: 200.0 mg/kg/injection, schedule: Q04DX003 (ip), vehicle: saline with Tween-80) is reported as 1 of 10.

`CCC(C)NC(=O)Nc1cccc(Cl)c1C` (stereo not given) was tested, and the survivor count (dose: 400.0 mg/kg/injection, schedule: Q01DX009 (ip), vehicle: saline with Tween-80) was 9 of 10.

In the case of `O=C(O)C1C2CC3C(C2)C31.[Ag]` (stereo not given), the survivor count (dose: 100.0 mg/kg/injection, schedule: Q01DX009 (ip), vehicle: Klucel (hydroxypropylcellulose) (HPC)) is reported as 0 of 10, the survivor count (dose: 200.0 mg/kg/injection, schedule: Q01DX009 (ip), vehicle: Klucel (hydroxypropylcellulose) (HPC)) is reported as 0 of 10 and the survivor count (dose: 400.0 mg/kg/injection, schedule: Q01DX009 (ip), vehicle: Klucel (hydroxypropylcellulose) (HPC)) is reported as 0 of 10.
